Experimental data published in the supplement of paper PMC10849652.
This is one part of the list.

By UniProt entry, the sequences of proteins in these tests, tags left out. Where a name states a change or a piece, a line headed by the entry shows the natural chain unless it says otherwise.
UniProt P23258, whole entry, looked up: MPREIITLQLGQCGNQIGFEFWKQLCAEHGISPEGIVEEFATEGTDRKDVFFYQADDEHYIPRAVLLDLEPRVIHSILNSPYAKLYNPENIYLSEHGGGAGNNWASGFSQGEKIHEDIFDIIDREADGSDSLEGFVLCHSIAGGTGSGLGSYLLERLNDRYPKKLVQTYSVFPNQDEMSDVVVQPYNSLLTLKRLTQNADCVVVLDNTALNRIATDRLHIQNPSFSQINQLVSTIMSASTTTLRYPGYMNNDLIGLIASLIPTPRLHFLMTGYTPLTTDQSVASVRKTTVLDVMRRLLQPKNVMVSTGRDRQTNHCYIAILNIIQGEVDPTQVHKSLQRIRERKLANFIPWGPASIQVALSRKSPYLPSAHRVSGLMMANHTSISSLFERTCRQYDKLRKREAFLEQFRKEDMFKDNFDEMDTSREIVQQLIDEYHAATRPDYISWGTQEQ
UniProt Q9NPD8: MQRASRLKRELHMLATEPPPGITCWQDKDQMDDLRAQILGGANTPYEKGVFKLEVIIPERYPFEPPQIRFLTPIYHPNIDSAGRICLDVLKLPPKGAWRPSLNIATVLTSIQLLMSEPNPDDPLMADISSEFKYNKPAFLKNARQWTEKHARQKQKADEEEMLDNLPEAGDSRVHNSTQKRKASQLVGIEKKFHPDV
UniProt Q15819: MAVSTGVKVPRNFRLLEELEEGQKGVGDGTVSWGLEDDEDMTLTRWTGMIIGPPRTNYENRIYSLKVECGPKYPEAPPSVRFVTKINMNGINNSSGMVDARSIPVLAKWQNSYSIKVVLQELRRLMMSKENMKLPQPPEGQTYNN
UniProt Q8TBC4: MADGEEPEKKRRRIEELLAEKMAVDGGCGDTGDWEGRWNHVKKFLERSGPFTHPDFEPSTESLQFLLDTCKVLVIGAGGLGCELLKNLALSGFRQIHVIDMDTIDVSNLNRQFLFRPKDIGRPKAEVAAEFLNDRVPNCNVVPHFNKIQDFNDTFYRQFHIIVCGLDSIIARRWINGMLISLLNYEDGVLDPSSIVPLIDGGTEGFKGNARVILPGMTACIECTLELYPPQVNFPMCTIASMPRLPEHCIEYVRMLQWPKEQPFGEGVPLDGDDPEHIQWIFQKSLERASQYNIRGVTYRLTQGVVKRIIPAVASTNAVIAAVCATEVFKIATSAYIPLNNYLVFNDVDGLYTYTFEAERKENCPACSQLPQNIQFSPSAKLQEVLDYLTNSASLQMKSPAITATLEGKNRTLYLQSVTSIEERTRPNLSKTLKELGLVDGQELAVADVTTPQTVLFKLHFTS
UniProt Q96J42: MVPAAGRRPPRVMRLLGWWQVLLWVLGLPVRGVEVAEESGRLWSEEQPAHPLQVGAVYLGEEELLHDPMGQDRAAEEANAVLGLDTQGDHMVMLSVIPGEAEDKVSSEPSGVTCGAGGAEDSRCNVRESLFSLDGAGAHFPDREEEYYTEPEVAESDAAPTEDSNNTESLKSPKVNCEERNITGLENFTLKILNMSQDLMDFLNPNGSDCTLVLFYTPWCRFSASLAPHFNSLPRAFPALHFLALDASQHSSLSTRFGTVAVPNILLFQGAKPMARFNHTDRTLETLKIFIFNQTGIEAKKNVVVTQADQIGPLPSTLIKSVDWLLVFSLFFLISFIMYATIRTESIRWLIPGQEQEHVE
UniProt Q8NBP0: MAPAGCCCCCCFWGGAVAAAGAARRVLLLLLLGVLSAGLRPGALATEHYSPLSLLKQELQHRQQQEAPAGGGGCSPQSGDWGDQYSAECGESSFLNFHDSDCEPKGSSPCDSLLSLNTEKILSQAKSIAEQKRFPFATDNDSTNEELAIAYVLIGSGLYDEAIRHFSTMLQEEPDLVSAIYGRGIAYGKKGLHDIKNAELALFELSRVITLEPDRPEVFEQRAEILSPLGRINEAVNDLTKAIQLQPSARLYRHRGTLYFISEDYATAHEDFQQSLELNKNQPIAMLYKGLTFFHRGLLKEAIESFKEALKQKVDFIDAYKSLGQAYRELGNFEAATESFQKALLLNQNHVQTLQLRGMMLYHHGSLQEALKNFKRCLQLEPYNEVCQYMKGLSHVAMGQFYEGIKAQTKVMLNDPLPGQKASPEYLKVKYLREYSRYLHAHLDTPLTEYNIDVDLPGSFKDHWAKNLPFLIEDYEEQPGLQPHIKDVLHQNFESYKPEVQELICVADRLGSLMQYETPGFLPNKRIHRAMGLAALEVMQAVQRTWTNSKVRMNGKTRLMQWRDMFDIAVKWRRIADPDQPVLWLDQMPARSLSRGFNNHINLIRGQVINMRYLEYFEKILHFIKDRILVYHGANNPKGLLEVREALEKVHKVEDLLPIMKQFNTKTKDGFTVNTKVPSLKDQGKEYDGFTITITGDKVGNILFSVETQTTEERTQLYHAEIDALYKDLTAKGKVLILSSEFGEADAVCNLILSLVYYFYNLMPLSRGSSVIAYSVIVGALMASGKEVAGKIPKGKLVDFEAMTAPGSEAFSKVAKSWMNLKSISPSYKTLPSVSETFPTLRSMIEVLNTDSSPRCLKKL
UniProt Q6PID6, whole entry, looked up: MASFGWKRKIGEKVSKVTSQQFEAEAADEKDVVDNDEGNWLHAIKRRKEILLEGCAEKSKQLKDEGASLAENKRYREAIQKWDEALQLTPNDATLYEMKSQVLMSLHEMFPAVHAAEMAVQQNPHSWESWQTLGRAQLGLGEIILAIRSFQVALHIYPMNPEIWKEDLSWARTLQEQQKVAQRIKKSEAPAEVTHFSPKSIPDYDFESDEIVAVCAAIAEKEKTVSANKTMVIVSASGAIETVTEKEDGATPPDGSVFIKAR
UniProt O95801: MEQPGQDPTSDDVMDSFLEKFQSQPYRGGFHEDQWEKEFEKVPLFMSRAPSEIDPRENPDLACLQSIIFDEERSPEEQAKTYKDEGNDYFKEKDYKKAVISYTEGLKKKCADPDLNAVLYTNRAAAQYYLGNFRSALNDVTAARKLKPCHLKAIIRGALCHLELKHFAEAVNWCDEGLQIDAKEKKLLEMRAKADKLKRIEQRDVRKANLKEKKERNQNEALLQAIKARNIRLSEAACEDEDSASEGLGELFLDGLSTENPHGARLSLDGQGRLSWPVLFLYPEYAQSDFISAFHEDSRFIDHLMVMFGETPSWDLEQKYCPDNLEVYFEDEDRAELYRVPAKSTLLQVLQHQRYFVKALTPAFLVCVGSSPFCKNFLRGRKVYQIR
UniProt Q86VQ3: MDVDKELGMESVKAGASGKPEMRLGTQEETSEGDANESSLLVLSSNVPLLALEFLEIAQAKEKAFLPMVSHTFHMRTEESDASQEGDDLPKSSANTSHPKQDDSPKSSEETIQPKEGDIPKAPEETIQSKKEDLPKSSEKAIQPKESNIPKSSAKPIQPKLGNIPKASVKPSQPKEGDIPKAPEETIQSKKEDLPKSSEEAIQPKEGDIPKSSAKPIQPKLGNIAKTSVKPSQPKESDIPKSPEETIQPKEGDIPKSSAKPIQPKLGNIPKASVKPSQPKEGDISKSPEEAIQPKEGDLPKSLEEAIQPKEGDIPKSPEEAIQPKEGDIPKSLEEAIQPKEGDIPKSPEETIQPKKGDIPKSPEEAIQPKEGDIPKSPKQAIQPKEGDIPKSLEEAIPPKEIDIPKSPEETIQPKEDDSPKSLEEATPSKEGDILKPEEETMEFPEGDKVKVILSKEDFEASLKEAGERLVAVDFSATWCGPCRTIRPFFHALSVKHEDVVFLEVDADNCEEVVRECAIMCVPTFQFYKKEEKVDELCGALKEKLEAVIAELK
UniProt Q5BVD1: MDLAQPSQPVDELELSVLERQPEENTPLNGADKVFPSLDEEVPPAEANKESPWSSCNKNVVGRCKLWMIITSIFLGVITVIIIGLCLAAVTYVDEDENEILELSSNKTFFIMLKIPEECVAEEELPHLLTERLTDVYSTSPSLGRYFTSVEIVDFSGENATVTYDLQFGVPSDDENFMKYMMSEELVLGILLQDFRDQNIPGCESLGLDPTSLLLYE
UniProt Q8WUA8: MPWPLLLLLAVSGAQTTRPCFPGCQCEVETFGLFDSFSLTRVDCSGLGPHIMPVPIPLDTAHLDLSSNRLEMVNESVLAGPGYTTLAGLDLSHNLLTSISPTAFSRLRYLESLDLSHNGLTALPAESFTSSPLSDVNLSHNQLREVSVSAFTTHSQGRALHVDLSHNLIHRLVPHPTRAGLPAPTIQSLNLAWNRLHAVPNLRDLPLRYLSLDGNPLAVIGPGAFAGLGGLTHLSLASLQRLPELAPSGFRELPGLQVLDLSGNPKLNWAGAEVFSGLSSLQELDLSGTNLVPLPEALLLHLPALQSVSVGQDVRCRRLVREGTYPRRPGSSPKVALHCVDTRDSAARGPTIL

Experiments:
Assay in all cases: log2 fold change, soluble protein after heating vs DMSO (PISA); higher = thermal stabilisation; K562 cells, 10 uM, 30 min; active = over 0.2 and 3.5 SD of the protein, either way, in both replicates (recomputed)
[1] = compound: C1=CC=C(C=C1)[C@H](COC2=CC3=C(C=C2)NC(=O)N3)NC(=O)C4=CC=CN(C4=O)CC5=CC(=C(C=C5)F)F
Outline: (§1)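 Soluble protein was defined as the supernatant after 21,000xg for 90 min. It came from K562 cells at 2×10^6 cells/mL given 10 μM compound for 30 min, heated in aliquots for 3 min across 48°C-58°C, pooled, and extracted in PBS with 0.5% NP-40 at 4°C, and was quantified by TMTpro 16plex LC-MS/MS with equalised channel sums. Thermal stability against control samples, from duplicates, is reported as log2 fold change.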

[2] = compound: CC1=C(SC2=C1C(=N[C@H](C3=NN=C(N32)C)CC(=O)N)C4=CC=C(C=C4)Cl)C
Outline: as §1

[3] = compound: CC1=C2C(=CC=C1)N=C(N(C2=O)C3=CC=CC=C3C)CN4C=NC5=C(N=CN=C54)N
Outline: as §1

[4] = compound: Cc1sc2c(c1C)C(c1ccc(Cl)cc1)=N[C@@H](CC(=O)OC(C)(C)C)c1nnc(C)n1-2
Outline: as §1

[5] = compound: c1ccc([C@@H]2C[C@H]2NC2CCNCC2)cc1
Outline: as §1

Measured: log2 fold change

TUBG1 (UniProt P23258)
inactive: [1] 0.02 | [2] 0.001 | [3] 0.072 | [4] 0.015 | [5] 0.041

UBE2T (UniProt Q9NPD8)
inactive: [1] -0.053 | [2] 0.071 | [3] 0.094 | [4] -0.018 | [5] -0.047

UBE2V2 (UniProt Q15819)
inactive: [1] 0.02 | [2] 0.053 | [3] 0.04 | [4] -0.026 | [5] -0.01

UBA3 (UniProt Q8TBC4)
inactive: [1] -0.071 | [2] 0.101 | [3] 0.037 | [4] -0.022 | [5] -0.06

TXNDC15 (UniProt Q96J42)
inactive: [1] 0.008 | [2] 0.336 | [3] -0.086 | [4] -0.197 | [5] 0.018

TTC13 (UniProt Q8NBP0)
inactive: [2] -0.05 | [3] 0.028 | [4] 0.027 | [5] -0.027

TTC33 (UniProt Q6PID6)
inactive: [1] -0.142 | [2] 0.018 | [3] 0.073 | [5] 0.019

TTC4 (UniProt O95801)
inactive: [1] -0.089 | [2] -0.008 | [3] 0.099 | [4] 0.022 | [5] -0.029

TXNDC2 (UniProt Q86VQ3)
inactive: [1] 0.228 | [3] -0.036

TTMP isoform 3 (UniProt Q5BVD1)
inactive: [1] 0.072 | [2] 0.401 | [4] 0.06 | [5] -0.042

TSKU (UniProt Q8WUA8)
inactive: [2] 0.048 | [3] -0.03 | [4] 0.231 | [5] -0.151
